In all, about 33,000 sequences were measured (“E-score (-0.5 to 0.5)”: median about -8e-05, highest 2% from about 0.23 on). This is one part of the list.
Target: T1, Nrg2 (UniProt P38082)
T1 sequence: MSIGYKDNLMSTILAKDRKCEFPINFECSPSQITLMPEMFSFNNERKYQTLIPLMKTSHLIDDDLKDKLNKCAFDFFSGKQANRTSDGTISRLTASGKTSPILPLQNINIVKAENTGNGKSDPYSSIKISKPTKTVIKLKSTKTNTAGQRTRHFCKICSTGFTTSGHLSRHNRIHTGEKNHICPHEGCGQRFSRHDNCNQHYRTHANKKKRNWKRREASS
Assay: PBM E-score (8-mer binding enrichment) (E-score (-0.5 to 0.5)); higher = stronger / more preferred TF binding
Settings: protein concentration: 100 nM; construct: GST-full length
Experimental: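 Universal 'all 10-mer' protein binding microarrays (Agilent AMADID 015681) probed with GST-tagged S. cerevisiae TFs (full-length or DBD) made by in vitro transcription/translation (PURExpress), about 100-200 nM. Bound TF was detected with fluorescent anti-GST. Each ungapped 8-mer (which stands for itself and its reverse complement) is scored by the PBM enrichment score (E-score), a modified Wilcoxon-Mann-Whitney statistic from -0.5 to +0.5, computed with the Universal PBM Analysis Suite. Scale: above 0.35 generally sequence-specific binding.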

Sequence	PBM E-score
CTCTTCTC	-0.215
CCCAGGCG	-0.0427
ACCATAAT	0.049
CATGTTTA	-0.0481
ACGGATAG	0.154
GGAACTGA	-0.0433
CGCTTCTC	-0.102
GACTAATA	0.0323
CCAGAGCC	-0.0415
ATGTAAGG	-0.0925
CAGCGTCG	0.0819
ACGGCCGA	0.0931
ACCTGTCC	-0.139
CTGGCCAC	-0.0312
GATCTATA	0.0258
AGTTAGCC	0.0439
CAAACCCG	0.00044
TGGTCGAA	-0.184
AGTGAACA	0.124
TAGAAATA	0.126
GTTGTTGA	0.0302
CGCTTTAG	0.0283
GATTTGTA	0.148
AGAATGCC	-0.21
AATATGCG	0.101

Reformatted bar-delimited: part of the list above
Sequence | PBM E-score
GATTTGTA | 0.148
AGAATGCC | -0.21
AATATGCG | 0.101

Following part.

Sequence	PBM E-score
AAGCCCTG	0.132
AATTTTGC	-0.173
GAAATGAC	0.249
GCAGGACC	-0.0329
GCCGGAGC	-0.311
CCCATTCG	0.0901
GTTTCCGA	0.17
CCACTATA	0.145
CGCTGGCA	0.0236
AGGGATTC	0.144
CAGCATCG	-0.248
CCATATGC	0.119
CCCCATAA	-0.0122
CCTATTAG	0.00413
ATCTGAGG	0.0579
GAATTGTC	0.0138
CGACCCAA	0.116
ACGTTCTC	0.0438
AGCAGAGG	-0.209
CTCCCGCC	-0.168
CGCTTCAC	-0.0485
GGGGAACA	-0.173
ATACCCGA	0.13
ACTCTTGC	0.071
AGAGTAGG	0.146

Part of the list above, as labelled records:
AAGCCCTG
  PBM E-score: 0.132
CGCTTCAC
  PBM E-score: -0.0485

(listing goes on)

Sequence	PBM E-score
AGGGTCCA	0.439
ATGATAGG	-0.00644
AGTCAAAT	-0.0216
GCATACGC	-0.0673
AGCAGTAA	-0.0472
CAGAGCGA	-0.0967
GTGGTTTA	-0.0326
TTATTCAA	0.029
AGGGGCGA	0.0282
AACCCTCG	0.0878
GCGCGCCA	0.199
ACATCTAA	-0.0262
CCTCGCAA	-0.00471
CTCCGGAG	0.052
GACTTAGA	-0.269
ACATTGAG	-0.0472
CAACAAAA	0.0193
TCCGCGGA	-0.0226
CACCCTTC	-0.047
TTACATAA	0.0945
AGGAAACG	-0.0446
TGAGGCAA	0.0145
CCCGTAAC	-0.0688
ACTCTATG	0.056
ACGGTCAG	-0.247

Sequence	PBM E-score
ACTGTGAA	0.0807
ACTCGATC	0.0285
GGTGAGAA	-0.0568
CACTTGCA	0.0298
CAAGGCGA	-0.0697
TCCAGAAA	0.0185
CAGTTACG	-0.118
CTAAGTGA	-0.00253
ATGCTATC	0.0323
CCTAGGCC	-0.0804
CAAAGGGG	0.0673
AGATTCAG	0.00389
ACTCTCCT	-0.0647
CGGAGTGA	-0.00536
AGCCAGCG	-0.0673
ACTCTCTA	-0.02
CAAAGATC	0.0537
AATGTCAG	-0.00665
GCCGACGC	0.106
ACCGGCAA	-0.105
CAGATGAA	0.026
AACAGCCG	-0.0322
GACGACAC	-0.0162
ACAGCATA	0.0336
AGTTTACC	0.0272

Sequence	PBM E-score
CTTTATCA	-0.0902
GCAGCGCA	-0.14
CACAACTC	0.161
ATGCATCA	0.229
AAACGCCC	0.075
GCATCTCA	0.0106
CAAACAAG	0.103
ATACAAGG	0.178
AATGTGTA	-0.221
CACTATAC	0.17
GGAGACAC	-0.0981
AGGGACGG	-0.0133
CGCCGCGC	0.0565
GAGTGAAC	-0.0558
CAGAAGCC	-0.0704
TATCGCAA	0.197
AGCTCACG	0.0222
ACAAAGCA	0.157
ACTTAACA	-0.0696
CGCTACAC	-0.0459
ATACCTGC	-0.0191
CGAGACAA	0.00971
CCATTCAA	0.106
AGCTAATG	0.0771
ATCGTAAT	0.0901

Sequence	PBM E-score
GATGTGCA	0.063
ATCAAATA	0.166
ATGTTTTC	0.00675
CAAGAACG	0.14
ATGACGTA	-0.179
ATGGTTGC	-0.0868
ACCCAGCA	-0.0713
ATCATCTA	0.0251
ATCCTAAT	-0.0839
ATAGTGAC	-0.0527
CATTGGCG	-0.192
CCTTGTTC	0.042
CACCCAGA	-0.0382
GCAGCGAA	-0.0544
CTACAGAC	-0.249
AGGAACAG	-0.158
ATTCTAGG	-0.0334
AACGTTTC	-0.144
CGCAGAAA	0.0592
GGTAGTGA	0.0296
GGACGACA	0.132
CAGTAAAG	-0.0525
CCGCGGAC	0.0796
ATTGGCCC	-0.214
CACCAGCG	-0.0759

Quoted at random: 2 records from the list
Sequence	PBM E-score
ACCCAGCA	-0.0713
ATAGTGAC	-0.0527

The list continues:

Sequence	PBM E-score
AACTTAAA	0.0173
ATACTACA	0.175
AATGAGAG	0.0851
AACACTGT	-0.0188
CTTGCCCA	-0.149
GACGGAAA	0.2
ACACGGGG	0.105
AGGAAACC	0.0623
AGTCAGTG	0.147
AGCAGCCT	-0.169
AAATTTCG	0.171
GGGTAAAA	0.134
CCGTAAAA	0.0001
CCCCCGCG	-0.167
CAGCAAAA	0.056
GCATTCGA	0.124
TCGTCTCA	-0.0243
CTCTTACC	0.127
AAAGCTAC	-0.0761
CACCAACG	-0.219
CTCCTCTA	-0.335
CTTAAAAC	0.0325
